Experimental findings from doi:10.1101/2021.12.02.470903 are described below.

Protein sequences, listed by entry. Tags and fused reporters are not part of them.
UniProt Q0WLB5: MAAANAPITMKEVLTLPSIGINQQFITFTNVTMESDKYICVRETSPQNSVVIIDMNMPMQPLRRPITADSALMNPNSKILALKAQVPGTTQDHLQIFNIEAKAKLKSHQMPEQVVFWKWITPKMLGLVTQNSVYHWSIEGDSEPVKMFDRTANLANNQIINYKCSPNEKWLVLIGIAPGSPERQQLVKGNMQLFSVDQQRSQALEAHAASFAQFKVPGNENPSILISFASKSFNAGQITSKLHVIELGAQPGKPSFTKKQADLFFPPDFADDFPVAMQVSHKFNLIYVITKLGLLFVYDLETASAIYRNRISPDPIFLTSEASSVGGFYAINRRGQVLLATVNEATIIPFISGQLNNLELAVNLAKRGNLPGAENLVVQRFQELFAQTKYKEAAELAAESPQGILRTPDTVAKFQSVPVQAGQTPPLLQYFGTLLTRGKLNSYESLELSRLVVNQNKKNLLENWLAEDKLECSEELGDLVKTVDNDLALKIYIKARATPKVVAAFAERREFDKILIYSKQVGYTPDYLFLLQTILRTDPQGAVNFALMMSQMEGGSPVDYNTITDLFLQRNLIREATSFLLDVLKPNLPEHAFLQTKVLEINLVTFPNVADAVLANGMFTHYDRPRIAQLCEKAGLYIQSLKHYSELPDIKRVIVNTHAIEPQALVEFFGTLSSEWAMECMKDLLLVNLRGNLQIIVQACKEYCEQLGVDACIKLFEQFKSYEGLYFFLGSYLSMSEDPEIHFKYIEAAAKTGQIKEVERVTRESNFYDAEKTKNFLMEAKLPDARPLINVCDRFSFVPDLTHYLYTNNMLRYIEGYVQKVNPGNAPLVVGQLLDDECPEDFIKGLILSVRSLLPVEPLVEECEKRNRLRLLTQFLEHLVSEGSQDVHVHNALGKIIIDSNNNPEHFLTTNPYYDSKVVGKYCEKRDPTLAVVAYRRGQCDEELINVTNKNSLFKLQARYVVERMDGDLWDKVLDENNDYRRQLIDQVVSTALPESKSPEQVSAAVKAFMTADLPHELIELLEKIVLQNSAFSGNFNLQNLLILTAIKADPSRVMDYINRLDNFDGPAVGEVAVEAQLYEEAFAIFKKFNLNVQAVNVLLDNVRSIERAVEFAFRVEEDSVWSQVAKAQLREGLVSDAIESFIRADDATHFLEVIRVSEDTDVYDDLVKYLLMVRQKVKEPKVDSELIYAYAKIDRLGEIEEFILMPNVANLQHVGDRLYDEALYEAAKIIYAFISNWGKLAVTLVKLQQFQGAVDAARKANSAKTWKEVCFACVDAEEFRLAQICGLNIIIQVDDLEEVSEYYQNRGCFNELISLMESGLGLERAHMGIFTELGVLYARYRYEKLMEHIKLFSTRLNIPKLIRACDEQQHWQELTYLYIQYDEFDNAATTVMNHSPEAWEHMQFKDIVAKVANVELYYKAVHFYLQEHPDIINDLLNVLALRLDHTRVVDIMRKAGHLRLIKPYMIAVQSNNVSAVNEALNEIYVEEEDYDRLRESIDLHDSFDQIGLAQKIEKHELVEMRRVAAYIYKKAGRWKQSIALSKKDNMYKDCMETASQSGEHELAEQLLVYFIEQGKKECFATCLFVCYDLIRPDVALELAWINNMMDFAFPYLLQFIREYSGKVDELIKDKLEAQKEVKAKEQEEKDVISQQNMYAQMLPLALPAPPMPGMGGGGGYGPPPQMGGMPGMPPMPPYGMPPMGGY

This assay concerns the target T1, CV-HA (CHLOROPLAST VESICULATION with HA tag, DEX-inducible, transgenic DEX-CV-HA plants) (Arabidopsis thaliana) (UniProt Q8S8K8).
T1 sequence: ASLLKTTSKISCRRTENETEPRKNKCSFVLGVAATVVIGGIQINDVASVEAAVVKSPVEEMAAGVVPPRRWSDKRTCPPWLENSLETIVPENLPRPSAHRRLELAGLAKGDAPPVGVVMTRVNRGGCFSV
The assay can be described thus: affinity purification with mass spectrometry.

No constants are given. Whether binding was seen depends on the method and setting. Binding seen in cells or lysates may run through a third protein. A yes stands for co-enrichment or nearness to the bait. Other partners may have been found. Tags and fused reporters may be left off the sequences shown.

As for “Clathrin heavy chain 2 (CHC2), endogenous (from UniProt Q0WLB5 1-1703)”, the binding entry is “binds”.

For the substance “…-3-PHOSPHATE DEHYDROGENASE GAPC1, endogenous (from UniProt P25858 1-338) (enzyme)”, the binding entry is “binds”.
